Data: patent US20190135888A1
No constants are given. Whether binding was seen depends on the method and setting. Some binding calls cover weakened binding; strength is not graded here.

Chains of the proteins cited; added tags and fusions are not shown. Residues count along the entry.
UniProt P47871, residues 26-136: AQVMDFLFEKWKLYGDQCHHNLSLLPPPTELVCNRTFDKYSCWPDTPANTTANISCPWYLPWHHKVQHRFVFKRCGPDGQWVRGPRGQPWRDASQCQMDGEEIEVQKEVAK

Key:
[1] = molecular target: glucagon; assay: pull-down (IP glucagon against IP control), immunoblot for aP2
[2] = molecular target: glucagon; assay: microscale thermophoresis (LED:30%, MST Power 20%), FABP4 and glucagon by the legend
[3] = molecular target: glucagon; assay: microscale thermophoresis instrument, temperature jump (LED:30%, MST Power:20%), aP2 and glucagon by the legend
[4] = molecular target: glucagon; assay: biolayer interferometry (BLItz), unlabelled aP2 on biotin-glucagon on streptavidin probes, traces with fitted lines
[5] = molecular target: glucagon; assay: pull-down with glucagon peptides (Gluc1-29, Gluc22-29), Western blot; the blotting antibody is not printed on the sheet
[6] = molecular target: GCGR extracellular domain (GCGR-ecd) (UniProt P47871); assay: microscale thermophoresis (LED:40%, MST Power:30%), GCGR-ECD with tag and hFABP4 by the legend
[7] = molecular target: GCGR extracellular domain (GCGR-ecd) (UniProt P47871); assay: microscale thermophoresis + T-jump (LED:80%, MST Power:70%), GCGR-ECD without tag and hFABP4 by the legend

Measured: binding

B1: aP2 (recombinant aP2 of Example 1) (protein)
chain: MCDAFVGTWKLVSSENFDDYMKEVGVGFATRKVAGMAKPNMIISVNGDLVTIRSESTFKNTEISFKLGVEFDEITADDRKVKSIITLDGGALVQVQKWDGKSTTIKRKRDGDKLVVECVMKGVTSTRVYERA
not listed: [6] | [7]
binds: all other assays above

B2: human aP2 (fatty acid-binding protein, adipocyte, FABP4/aP2, Homo sapiens) (protein)
chain: CDAFVGTWKLVSSENFDDYMKEVGVGFATRKVAGMAKPNMIISVNGDVITIKSESTFKNTEISFILGQEFDEVTADDRKVKSTITLDGGVLVHVQKWDGKSTTIKRKREDDKLVVECVMKGVTSTRVYERA
binds: [6] | [7]
